These are yes or no findings as the source states them, for the method shown. Binding seen in cells or lysates may run through a third protein. Some binding calls cover weakened binding; strength is not graded here. Sequences can lack the tags named with a protein.

Chains of the proteins cited; added tags and fusions are not shown.
UniProt Q8VEK3: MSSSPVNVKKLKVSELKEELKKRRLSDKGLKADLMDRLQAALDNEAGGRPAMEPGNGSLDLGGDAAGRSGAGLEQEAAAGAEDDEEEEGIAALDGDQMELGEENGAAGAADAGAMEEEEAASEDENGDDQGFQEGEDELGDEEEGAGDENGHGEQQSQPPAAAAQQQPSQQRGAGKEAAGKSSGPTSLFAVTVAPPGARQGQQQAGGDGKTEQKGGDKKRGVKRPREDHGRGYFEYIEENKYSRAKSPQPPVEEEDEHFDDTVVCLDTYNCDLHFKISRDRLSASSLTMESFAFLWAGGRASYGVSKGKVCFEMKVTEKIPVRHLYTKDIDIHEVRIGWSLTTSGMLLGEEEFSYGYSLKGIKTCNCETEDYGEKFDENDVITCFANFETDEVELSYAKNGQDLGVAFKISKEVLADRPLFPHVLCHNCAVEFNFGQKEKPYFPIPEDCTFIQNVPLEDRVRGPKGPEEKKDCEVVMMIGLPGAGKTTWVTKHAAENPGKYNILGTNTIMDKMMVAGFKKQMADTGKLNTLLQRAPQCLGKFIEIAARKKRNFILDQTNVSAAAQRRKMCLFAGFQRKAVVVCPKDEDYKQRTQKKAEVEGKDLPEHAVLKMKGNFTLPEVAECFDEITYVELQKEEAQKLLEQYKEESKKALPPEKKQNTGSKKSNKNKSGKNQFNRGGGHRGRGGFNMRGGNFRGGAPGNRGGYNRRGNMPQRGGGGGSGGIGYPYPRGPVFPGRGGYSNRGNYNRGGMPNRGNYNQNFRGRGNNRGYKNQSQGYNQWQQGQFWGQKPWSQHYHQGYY

This assay deals with T1, Flag-tagged FAM171B, overexpressed in MB49 cells (UniProt Q14CH0).
T1 sequence: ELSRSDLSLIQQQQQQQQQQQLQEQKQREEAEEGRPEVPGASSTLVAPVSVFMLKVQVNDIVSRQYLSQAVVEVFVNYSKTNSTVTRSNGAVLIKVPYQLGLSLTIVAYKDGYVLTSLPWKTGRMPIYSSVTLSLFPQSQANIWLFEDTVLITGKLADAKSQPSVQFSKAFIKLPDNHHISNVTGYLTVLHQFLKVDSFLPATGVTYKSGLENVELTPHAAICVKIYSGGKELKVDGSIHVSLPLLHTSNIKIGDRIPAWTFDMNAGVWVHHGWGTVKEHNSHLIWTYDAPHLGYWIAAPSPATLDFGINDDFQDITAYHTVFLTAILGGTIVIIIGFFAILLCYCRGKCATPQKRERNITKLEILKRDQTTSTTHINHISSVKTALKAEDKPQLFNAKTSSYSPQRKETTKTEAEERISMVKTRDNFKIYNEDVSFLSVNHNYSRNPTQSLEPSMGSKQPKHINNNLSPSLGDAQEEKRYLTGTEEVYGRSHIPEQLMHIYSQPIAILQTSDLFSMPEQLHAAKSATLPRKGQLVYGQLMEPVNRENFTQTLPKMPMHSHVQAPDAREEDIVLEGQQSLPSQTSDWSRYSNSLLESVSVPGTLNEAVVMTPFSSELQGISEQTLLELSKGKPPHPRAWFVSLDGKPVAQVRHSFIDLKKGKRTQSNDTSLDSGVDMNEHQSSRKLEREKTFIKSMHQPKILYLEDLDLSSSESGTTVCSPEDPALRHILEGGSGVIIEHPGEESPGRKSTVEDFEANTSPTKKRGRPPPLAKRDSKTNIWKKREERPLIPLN
The assay can be described thus: co-IP; MB49 cells co-transfected with Flag-tagged FAM171B and HA-tagged vimentin or HNRNPU; immunoprecipitation with anti-DYKDDDDK beads and anti-HA beads; western blot with anti-Flag and anti-HA antibodies.

With “HA-tagged HNRNPU, overexpressed in MB49 cells (from UniProt Q8VEK3 1-800)”, the binding result is listed as “binds”.
